# Values of other authors, collected in patent publication US20210177893A1, “Composition and method for treating and healing Medication-Related Osteonecrosis of the Jaw (MRONJ)” (priority 2019, published 2021).
# At least one compound was matched to its structure with a doubt left.
# Test system: capillary neoangiogenesis
# Details: cited from earlier work
structure (smiles),measurement,value
O=P(O)(O)C(O)(Cn1ccnc1)P(=O)(O)O [zoledronic acid],effect on new formation of capillaries from blood vessels (capillary neoangiogenesis),inhibit the new formation of capillaries from blood vessels
